The list shows only some results of the screen, not a fair sample: it is rich in T/C values a quarter to a half above the control, in often repeated tests (any T/C) and in doses without a T/C. Further doses and runs are listed elsewhere. T/C: endpoint of the treated group in % of that of the vehicle group. Some entries give survivors of the animals treated and no T/C: the source files T/C as zero there, which appears to mark a toxic dose or a test without result, not a measured value. Some doses without a T/C left all or most animals alive at the check, yet need not have been tolerated: the source hardly ever lists a survival T/C far under the control, and the zero likely stands for such cases as well. Survivors were counted at the toxicity check, usually on the fifth day, unless a day is given; later deaths do not show. Schedules are NCI's codes, taken here to give the interval after Q, in days (D) or hours (H), and the number of doses after X. Some entries were tested several times; their values stand side by side, smallest first. Where survival is the endpoint, the PubChem record calls one and a half times the control and up active, and a quarter to a half above the control has no call in these data; cut-offs in other NCI protocols can differ. Some schedules carry Z or #; the key to these is not given. Some T/C values carry the count of animals alive at the toxicity check (mostly the fifth day); where none is given, no animal had died by that day.

The assay concerns L1210 leukemia ip in BDF1 mice, survival T/C. In words: NCI In Vivo Anticancer Drug Screen. Data for tumor model L1210 Leukemia (intraperitoneal) in B6D2F1 (BDF1) mice. To be noted: T/C endpoint: mean survival time, higher T/C = longer survival.
[1] abbreviates: dose: 150.0 mg/kg/injection, schedule: Q01DX001 (ip), vehicle: saline.
[2] abbreviates: dose: 400.0 mg/kg/injection, schedule: Q01DX001 (ip), vehicle: carboxymethylcellulose (CMC).
The mark [3] stands for this setting: dose: 200.0 mg/kg/injection, schedule: Q04DX002 (ip), vehicle: saline with Tween-80.
The mark [4] stands for this setting: dose: 400.0 mg/kg/injection, schedule: Q01DX009 (ip), vehicle: Klucel (hydroxypropylcellulose) (HPC).

Consider `C[N+]1(C)C2C=CCC1CSC2` (centres undefined), for which the survivor count (dose: 30.0 mg/kg/injection, schedule: Q01DX001 (ip), vehicle: saline) is on record as 3 of 6; the survivor count (dose: 60.0 mg/kg/injection, schedule: Q01DX001 (ip), vehicle: saline) is 0 of 6; the survivor count (dose: 75.0 mg/kg/injection, schedule: Q01DX001 (ip), vehicle: saline) is given as 0 of 6; the survivor count under setting [1] is given as 0 of 6; the survivor count (dose: 300.0 mg/kg/injection, schedule: Q01DX001 (ip), vehicle: saline) is on record as 0 of 6.

`CC1(C)N=C(N)N=C(N)N1c1cccc(OCCCOc2ccc([N+](=O)[O-])cc2)c1`: the survivor count is, setting by setting: (dose: 200.0 mg/kg/injection, schedule: Q01DX001 (ip), vehicle: saline) 3 of 6; (dose: 400.0 mg/kg/injection, schedule: Q01DX001 (ip), vehicle: saline) 0 of 6.

Turning to `C/C(=C\Cl)COC(C)(C)C`, the survivor count (dose: 400.0 mg/kg/injection, schedule: Q01DX001 (ip), vehicle: saline with Tween-80) is 0 of 6.

Regarding `COC1Nc2cc3ccccc3cc2-c2ccccc21` (centres undefined), the survivor count under setting [2] was 6 of 6.

Consider `Cc1ccc(S(=O)(=O)Nc2ccc(-c3ccc(NS(=O)(=O)c4ccc(C)cc4)cc3)cc2)cc1`, for which the survivor count by setting is: (dose: 25.0 mg/kg/injection, schedule: Q04DX002 (ip), vehicle: saline with Tween-80) 3 of 3; under setting [3], 3 of 3.

For the compound `Nc1nnnc2c1ncn2C1OC(CO)C(O)C1O` (centres undefined), the T/C (dose: 8.0 mg/kg/injection, schedule: Q01DX009 (ip), vehicle: saline) was 125 % of control; the T/C (dose: 23.0 mg/kg/injection, schedule: Q01DX009 (ip), vehicle: saline) is 129 % of control; the T/C under setting [1] is 128 % of control.

For the compound `NC(CCC(=O)NC(CSC(c1ccccc1)(c1ccccc1)c1ccc(F)cc1)C(=O)NCC(=O)O)C(=O)O` (centres undefined), the T/C by setting is: (dose: 100.0 mg/kg/injection, schedule: Q01DX009 (ip), vehicle: other) 127 % of control; (dose: 100.0 mg/kg/injection, schedule: Q01DX009 (ip), vehicle: saline) 127 % of control; (dose: 200.0 mg/kg/injection, schedule: Q01DX009 (ip), vehicle: other) 130 % of control. The survivor count (dose: 400.0 mg/kg/injection, schedule: Q01DX009 (ip), vehicle: other) is 5 of 6.

For `O=CN(O)CC(=O)O.[Zn]`, the survivor count is reported as 1 of 6 (dose: 35.0 mg/kg/injection, schedule: Q01DX009 (ip), vehicle: saline); 2 of 6 (dose: 55.0 mg/kg/injection, schedule: Q01DX009 (ip), vehicle: saline); 0 of 6 (dose: 80.0 mg/kg/injection, schedule: Q01DX009 (ip), vehicle: saline).

As for `O=c1ccc2ccccc2[nH]1`, the survivor count (dose: 400.0 mg/kg/injection, schedule: Q01DX001 (ip), vehicle: other) is reported as 1 of 4.

With `C=CCn1c(-c2ccc(N(C)C)cc2)nc2c(Cl)ncnc21`, the survivor count is listed as 1 of 6 (dose: 200.0 mg/kg/injection, schedule: Q01DX001 (ip), vehicle: steroid suspending solution) and 0 of 6 (dose: 400.0 mg/kg/injection, schedule: Q01DX001 (ip), vehicle: steroid suspending solution).

Consider `COc1ccc(N2CSC(=S)N(c3ccc(OC)cc3)C2)cc1`, for which the survivor count is, setting by setting: (dose: 100.0 mg/kg/injection, schedule: Q04DX003 (ip), vehicle: saline) 6 of 6; (dose: 200.0 mg/kg/injection, schedule: Q04DX003 (ip), vehicle: saline) 6 of 6.

On to `COc1ccc(OC)c2c1CCCC2`, for which the T/C under setting [4] is 125 % of control [4 of 6 alive].

Regarding `O=C(Oc1ccccc1)C(Cl)(Cl)Cl`, the survivor count runs as follows: (dose: 50.0 mg/kg/injection, schedule: Q01DX009 (ip), vehicle: acetone) 6 of 6; (dose: 100.0 mg/kg/injection, schedule: Q01DX009 (ip), vehicle: acetone) 6 of 6; (dose: 200.0 mg/kg/injection, schedule: Q01DX009 (ip), vehicle: acetone) 3 of 6; (dose: 400.0 mg/kg/injection, schedule: Q04DX003 (ip), vehicle: acetone) 4 of 6.

For the compound `O=C1C(Cl)=C(N/N=c2/[nH][nH]/c(=N/NC3=C(Cl)C(=O)c4ccccc4C3=O)c3ccccc23)C(=O)c2ccccc21`, the survivor count reads like this: (dose: 100.0 mg/kg/injection, schedule: Q01DX001 (ip), vehicle: carboxymethylcellulose (CMC)) 1 of 4 and 2 of 4; (dose: 200.0 mg/kg/injection, schedule: Q01DX001 (ip), vehicle: carboxymethylcellulose (CMC)) 0 of 4; under setting [2], 0 of 4.

For the compound `Cc1ccc(OCC(=O)Nc2c(Cl)cc(Cl)cc2Cl)c(C)c1`, the survivor count (dose: 50.0 mg/kg/injection, schedule: Q04DX002 (ip), vehicle: gum acacia) is 3 of 3.

With `CCC(=O)C1(c2ccccc2)CCNCC1`, the survivor count is recorded as 3 of 3 (dose: 100.0 mg/kg/injection, schedule: Q04DX002 (ip), vehicle: Klucel (hydroxypropylcellulose) (HPC)); 2 of 3 (dose: 200.0 mg/kg/injection, schedule: Q01DX009 (ip), vehicle: Klucel (hydroxypropylcellulose) (HPC)); 0 of 3 under setting [4]; 1 of 3 (dose: 400.0 mg/kg/injection, schedule: Q04DX002 (ip), vehicle: Klucel (hydroxypropylcellulose) (HPC)).

As to `CCCCOC(=O)C1=C(C(=O)OCCCC)CCCC1`, the survivor count (dose: 400.0 mg/kg/injection, schedule: Q01DX009 (ip), vehicle: saline with Tween-80) is on record as 0 of 6.

For `CCC12CCCN=C1c1c([nH]c3ccccc13)CC2` (centres undefined), the survivor count (dose: 100.0 mg/kg/injection, schedule: Q04DX002 (ip), vehicle: saline with Tween-80) is on record as 0 of 3; the survivor count under setting [3] is on record as 0 of 3; the survivor count (dose: 400.0 mg/kg/injection, schedule: Q04DX002 (ip), vehicle: saline with Tween-80) is on record as 0 of 3.

In the case of `Nc1nc(SN=Nc2ccc(S(N)(=O)=O)cc2)c2[nH]cnc2n1`, the T/C (dose: 0.31 mg/kg/injection, schedule: Q01DX Z (ip), vehicle: other) was 125 % of control; the T/C (dose: 0.63 mg/kg/injection, schedule: Q01DX Z (ip), vehicle: other) is 141 and 142 % of control; the T/C (dose: 1.25 mg/kg/injection, schedule: Q01DX Z (ip), vehicle: other) is 142 % of control; the T/C (dose: 2.5 mg/kg/injection, schedule: Q01DX Z (ip), vehicle: other) was 145 % of control; the T/C (dose: 3.0 mg/kg/injection, schedule: Q04DX003 (ip), vehicle: saline with Tween-80) is 137 % of control; the T/C (dose: 5.0 mg/kg/injection, schedule: Q01DX Z (ip), vehicle: other) is 134 % of control. In addition, the T/C is, setting by setting: (dose: 6.0 mg/kg/injection, schedule: Q04DX003 (ip), vehicle: saline with Tween-80) 139 % of control; (dose: 7.0 mg/kg/injection, schedule: Q01DX Z (ip), vehicle: other) 147 % of control; (dose: 11.0 mg/kg/injection, schedule: Q01DX Z (ip), vehicle: other) 143 % of control; (dose: 12.5 mg/kg/injection, schedule: Q04DX003 (ip), vehicle: saline with Tween-80) 145 % of control [5 of 6 alive]; (dose: 17.0 mg/kg/injection, schedule: Q01DX Z (ip), vehicle: other) 142 and 148 % of control; (dose: 25.0 mg/kg/injection, schedule: Q04DX003 (ip), vehicle: saline with Tween-80) 147 % of control. Further, the T/C is 134 % of control (dose: 26.0 mg/kg/injection, schedule: Q01DX Z (ip), vehicle: other); 130 and 134 % of control (dose: 34.0 mg/kg/injection, schedule: Q01DX Z (ip), vehicle: other); 140 % of control (dose: 50.0 mg/kg/injection, schedule: Q04DX003 (ip), vehicle: saline with Tween-80); 142 % of control (dose: 100.0 mg/kg/injection, schedule: Q04DX003 (ip), vehicle: saline with Tween-80).

The record behind these values is PubChem BioAssay AID248 (DTP/NCI, 2004).
